Patent US20030182691A1
These are yes or no findings as the source states them, for the method shown. Some entries that bind do so weakly or less than the wild type. Where a sequence is shown, tags or fusion partners need not be part of it.

Assays:
[1] = target: T1, papain (cysteine protease) (UniProt P00784); assay: phage ELISA
T1 sequence (looked up): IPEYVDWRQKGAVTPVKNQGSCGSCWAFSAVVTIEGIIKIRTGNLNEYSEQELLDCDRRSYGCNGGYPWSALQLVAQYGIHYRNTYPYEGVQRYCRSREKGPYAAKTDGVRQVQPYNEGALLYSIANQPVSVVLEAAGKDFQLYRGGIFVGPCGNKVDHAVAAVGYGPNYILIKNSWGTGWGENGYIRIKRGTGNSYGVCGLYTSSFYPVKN

[2] = target: T1, papain (cysteine protease); assay: phage ELISA, papain coated in well

B1: phage displaying the OV7 protease inhibitor (OV7 from Onchocerca volvulus expressed on the surface of filamentous phage as a fusion to the gene 3 phage coat … (protein)
chain: AKNPSKMESKTGENQDRPVLLGGWEDRDPKDEEILELLPSILMKVNEQSNDEYHLMPIKLLKVSSQVVAGVKYKMDVQVARSQCKKSSNEKVDLTKCKKLEGHPEKVMTLEVWEKPWENFMRVEILGTKEV
Q: For B1, which binding [1] is on record?
A: The binding was “binds”.

Q: And the binding [2]?
A: The binding was “binds”.
